According to PubChem BioAssay AID540276 (National Center for Advancing Translational Sciences (NCATS), 2011):
Several values for one entry are separate records, joined by “and”; a condition that tells them apart may be missing. Identical values can stand only once. Out of some 300,000 compounds screened, about 5,400 (1.8%) were called active. Inconclusive means that the source gave no clear call. Such entries were picked first, then a sample of the others. The call rests on the fitted dose curve; tested in HEK293 cells. Potencies of inconclusive entries are doubtful fits and often do not repeat.

Experiment: qHTS for inhibitors of binding or entry into cells for Marburg Virus
Settings: Marburg virus pseudotyped entry inhibition, cell reporter; activity change, negative = inhibition: at 37.8 µM (top of the series) unless noted
On the % scale 0 is the no-effect control and ±100 the full control effect; potency means the concentration at half of the fitted maximal effect.

| Compound | Potency | activity change, negative = inhibition |
| --- | --- | --- |
| CCCCn1c(=S)[nH]c2ncccc2c1=O | inconclusive: 3.16 µM [inhibitor, single point] |  |
| O=C(CN1CCN(c2ccc(O)cc2)CC1)Nc1cc(S(=O)(=O)N2CCOCC2)ccc1Cl | inconclusive: 3.16 µM [activator, single point] |  |
| Cc1cc(C)c2c(=O)c3c(oc2c1)C(=O)N(CCO)C3c1cccc(O)c1 (configuration not stated) | inconclusive: 35.5 µM [activator, single point] |  |
| CCc1nnc(NC(=O)c2sc3nc4cc(C)ccc4cc3c2N)s1 | inconclusive: 29.1 µM [inhibitor, single point] |  |
| Cc1cc(Nc2ccc(Br)cc2)nc(C)n1 |  | inactive: 18.1% [at 46.1 µM] |
| Nc1[nH]c(N=NC(=O)c2ccccc2)c2ccccc12 | inconclusive: 5.17 µM [inhibitor, partial curve] |  |
| CC(C)CNC(=O)c1ccccc1Oc1ccccc1 | inconclusive: 11.2 µM [activator, partial curve, poor fit] |  |
| O=C(Nc1ccc2c(c1)OCCO2)C1CCCN(S(=O)(=O)c2cccc3nsnc23)C1 (configuration not stated) |  | inactive: -4.36% |
| Cc1ccccc1CSCC(=O)Nc1ccccc1-c1ccccc1 | inconclusive: 0.794 µM [inhibitor, full curve, poor fit] |  |
| O=C(CC(NC(=O)C(F)(F)F)c1ccccc1)Nc1nnc(CCc2ccccc2)s1 (configuration not stated) | inconclusive: 15.8 µM [activator, single point] |  |
| Cc1ccc(S(=O)(=O)Nc2nc3ccc(S(C)(=O)=O)cc3s2)cc1 |  | inactive: 6.39% |
| Nc1cc(N)nc(SCC(=O)Nc2ccc(Br)cc2Cl)n1 | inconclusive: 10 µM [activator, partial curve, poor fit] |  |
| Cn1cnc(S(=O)(=O)Nc2cc(C(F)(F)F)ccc2N2CCOCC2)c1 | inconclusive: 4.47 µM [inhibitor, single point] |  |
| CCCn1c(N)c(C(=O)CSc2nc3ccccc3n2CCC#N)c(=O)n(C)c1=O |  | inactive: 19.4% [at 46.1 µM] |
| C=CCn1c(SC2CCOC2=O)nc2sc(C)c(C)c2c1=O (configuration not stated) |  | inactive: 2.28% |
| CC(=O)CC1(OC(C)=O)C(=O)N(C)c2ccccc21 (configuration not stated) | inconclusive: 35.5 µM [inhibitor, single point] |  |
| O=C(/C=C/c1ccc(Cl)cc1Cl)NCCSCc1ccccc1 | inconclusive: 5.62 µM [inhibitor, single point] |  |
| CCOc1ccc(-c2nnc3ccc(SCC(=O)Nc4nc5ccc(C)cc5s4)nn23)cc1 | inconclusive: 0.316 µM [inhibitor, partial curve, poor fit] |  |
| O=C(Nc1ncccc1O)c1ccc(Oc2ccccc2)cc1 |  | inactive: -29.1% [at 46.1 µM] |
| Cc1nn2c(Nc3ccc(F)cc3)c3c(nc2c1-c1ccccc1)CCC3 |  | inactive: -1.13% |
| C/C(=N\NC(=O)Cc1cccn1C)c1cccs1 | inconclusive: 11.2 µM [activator, partial curve, poor fit] |  |
| CCc1cc(C(=O)Nc2cc(S(=O)(=O)N(CC)CC)ccc2N2CCN(C)CC2)sc1C | inconclusive: 3.55 µM [activator, single point] |  |
| O=c1[nH]nc(-c2ccc([N+](=O)[O-])o2)c(=O)[nH]1 | inconclusive: 10 µM [inhibitor, partial curve, poor fit] |  |

| Compound | Potency | activity change, negative = inhibition |
| --- | --- | --- |
| NS(=O)(=O)c1cccc(NC(=O)/C=C/c2cccs2)c1 |  | inactive: -1.89% |
| CCC(C)Cn1cnc2c(SCc3ccccn3)nc(N)nc21 (configuration not stated) | inconclusive: 2.82 µM [activator, full curve, poor fit] |  |
| CC(=O)N/C(=C\c1ccccc1)C(=O)OCC(=O)N(C)C1CCCCC1 | inconclusive: 1.78 µM [inhibitor, partial curve, poor fit] |  |
| CCCCOC(=O)CSC1=C(C#N)[C@H](c2ccccc2OC)[C@H](C#N)C(=O)N1 | inconclusive: 3.98 µM [inhibitor, full curve, poor fit] |  |
| COc1cc(-c2nc3sccn3c2Nc2c(C)cccc2C)ccc1O | inconclusive: 5.62 µM [inhibitor, single point] |  |
| O=C(CN1CCN(S(=O)(=O)c2ccc(Cl)cc2)CC1)Nc1ccc2c(c1)CCC2 | inconclusive: 22.4 µM [inhibitor, single point] |  |
| COc1ccc(C2(C(=O)NCc3ccco3)CCCC2)cc1OC |  | inactive: -12.8% [at 46.1 µM] |
| CCOC(=O)/C=c1\s/c(=C\c2ccc(C#N)cc2)c(=O)n1CC(=O)Nc1cccc(C)c1C | inconclusive: 1 µM [inhibitor, full curve, poor fit] |  |
| Cc1nc(NC(=S)NC(=O)COc2ccc(Cl)cc2)ccc1Br | inconclusive: 1.58 µM [inhibitor, partial curve, poor fit] |  |
| COc1ccccc1N(CC(=O)NC1CCCC1)C(=O)c1oc(C(C)(C)C)cc1C | inconclusive: 25.1 µM [inhibitor, partial curve, poor fit] |  |
| CCCCCn1c(N2CCCC2)nc2c1c(=O)n(C)c(=O)n2C | inconclusive: 3.16 µM [inhibitor, single point] |  |
| CC(C)(C)c1ccc(SCC(N)=O)cc1 |  | inactive: -7.1% |
| O=S(=O)(NC1=NCCC1)c1ccc(F)cc1F | inconclusive: 5.01 µM [activator, full curve, poor fit] |  |
| Cc1cc(CN2CCCC(C(=O)Nc3ccc(-c4nc5ccccc5[nH]4)cc3)C2)n[nH]1 (configuration not stated) | inconclusive: 20 µM [inhibitor, single point] |  |
| O=C(NC(CSCc1ccccc1)C(=O)N/N=C/c1ccc(O)cc1O)c1ccc([N+](=O)[O-])cc1 (configuration not stated) | active: 4.61 µM |  |
| CCOc1ccccc1CN1CCNC(=O)C1CC(=O)N(C)Cc1nonc1C (configuration not stated) | inconclusive: 2 µM [inhibitor, single point] |  |
| O=C(O)CN1C(=O)/C(=C2\SC(=S)N(C(Cc3ccccc3)C(=O)O)C2=O)c2ccccc21 (configuration not stated) | inconclusive: 1.26 µM [inhibitor, single point] |  |
| CCOC(=O)c1cnc(N2CC2)nc1N | active: 10 µM |  |
| COc1ccc(-c2cc(C(=O)Nc3cc(C)on3)c3ccccc3n2)c(OC)c1 | inconclusive: 14.1 µM [activator, single point] |  |
| COc1ccc(/C=N/NC(=O)Cn2c(Cc3ccc(OC)c(OC)c3)nc3ccccc32)cc1 | inconclusive: 0.082 µM [inhibitor, partial curve, poor fit] |  |
| CC(C)(C)c1ccc(S(=O)(=O)/C=C/C#N)cc1 | active: 2.51 µM |  |
| O=C(CSc1nccn1-c1ccccc1)NCc1ccc2c(c1)OCO2 | inconclusive: 35.5 µM [activator, single point] |  |
| COC(=O)c1cn[nH]c1NC(=S)Nc1ccc(Cl)c(Cl)c1 | inconclusive: 29.1 µM [inhibitor, single point] |  |

| Compound | Potency | activity change, negative = inhibition |
| --- | --- | --- |
| CC(C)CC(COCc1ccc(F)cc1)N1CCN(C(=O)c2cccc(C(F)(F)F)c2)CCC1=O (configuration not stated) | inconclusive: 0.13 µM [inhibitor, full curve, poor fit] |  |
| CC(C)c1ccccc1OCC(=O)Nc1cc(S(=O)(=O)N2CCOCC2)ccc1N1CCCC1 | inconclusive: 5.62 µM [inhibitor, partial curve, poor fit] |  |
| O=C(/C=C/c1ccc(O)cc1)OCc1occc(=O)c1O[C@@H]1OC(CO)[C@@H](O)[C@H](O)[C@@H]1O (some centres not stated) |  | inactive: 23.6% |
| CC(=O)c1c(C)[nH]c(C(=O)OCc2ccccc2)c1C | inconclusive: 7.94 µM [inhibitor, partial curve, poor fit] |  |
| O=C(Nc1nc(-c2ccccn2)cs1)c1ccco1 | inconclusive: 11.2 µM [inhibitor, partial curve, poor fit] |  |
| COc1ccccc1C(=O)Nc1ccc(-c2nnn(CC(=O)N3CCN(C(=O)c4ccco4)CC3)n2)cc1 | inconclusive: 5.62 µM [activator, single point] |  |
| O=[n+]1cc(-c2ccccc2)n([O-])c2c1CCCCC2 |  | inactive: 2.03% |
| Clc1ccc(-c2nnn3c2nc(NC2CCCCC2)c2ccccc23)cc1 |  | inactive: 6.49% [at 46.1 µM] |
| COC(=O)c1ccc(Nc2nc(N3CCOCC3)nc(N3CCOCC3)n2)cc1 | active: 2 µM |  |
| CCOC(=O)C(C(=O)OCC)C(CC(=O)C1CC1)c1ccccc1 (configuration not stated) | inconclusive: 35.5 µM [inhibitor, single point] |  |
| COc1ccc(NC(=O)CN2CCN(c3ccccc3F)CC2)cc1 | inconclusive: 0.891 µM [inhibitor, partial curve, poor fit] |  |
| C=CCOc1ccc(CNCC2CCCO2)cc1 (configuration not stated) |  | inactive: 2.67% [at 46.1 µM] |
| CCCn1c2ccc(F)cc2c2nnc(SCCN3CCCCC3)nc21 | inconclusive: 6.31 µM [inhibitor, full curve, poor fit] |  |
| CCOc1ccc(C(=O)C2CCN(CC(=O)Nc3ccccc3N3CCOCC3)CC2)cc1 | inactive and inconclusive: 16.4 µM [inhibitor, single point] |  |
| CCOC(=O)OC[C@H]1O[C@H](C#Cc2ccccc2)C=C[C@@H]1OC(=O)OCC | inconclusive: 0.0075 µM [activator, partial curve, poor fit] |  |
| O=C(/C=C/Nc1cccc(C(F)(F)F)c1)c1ccc(Oc2ncccn2)cc1 |  | inactive: -28% |
| CCN1C(=NCCc2ccccn2)NC(c2cccs2)C(C(=O)OC)=C1C (configuration not stated) | inconclusive: 2.66 µM [inhibitor, partial curve, poor fit] |  |
| CCN(C(=O)CSc1nnc(COc2cccc(C)c2)o1)c1nc(C)cs1 |  | inactive: 2.12% [at 46.1 µM] |
| CCS(=O)(=O)N1CCCc2cc(C(=O)Nc3cccc(C(C)=O)c3)ccc21 |  | inactive: 0.837% [at 46.1 µM] |
| COc1ccc(-c2nc3ccccn3c2NCc2ccc3c(c2)OCO3)cc1 |  | inactive: -8% |
| Cc1ccc(S(=O)(=O)NCCNc2ccc([N+](=O)[O-])cc2C(F)(F)F)cc1 | inconclusive: 29.1 µM [inhibitor, single point] |  |
